For three molecules, binding results are on record in publication PMC7225313.

Amino acid sequences for entries named in this document (tags omitted). Residues count along the entry.
UniProt Q79FK9: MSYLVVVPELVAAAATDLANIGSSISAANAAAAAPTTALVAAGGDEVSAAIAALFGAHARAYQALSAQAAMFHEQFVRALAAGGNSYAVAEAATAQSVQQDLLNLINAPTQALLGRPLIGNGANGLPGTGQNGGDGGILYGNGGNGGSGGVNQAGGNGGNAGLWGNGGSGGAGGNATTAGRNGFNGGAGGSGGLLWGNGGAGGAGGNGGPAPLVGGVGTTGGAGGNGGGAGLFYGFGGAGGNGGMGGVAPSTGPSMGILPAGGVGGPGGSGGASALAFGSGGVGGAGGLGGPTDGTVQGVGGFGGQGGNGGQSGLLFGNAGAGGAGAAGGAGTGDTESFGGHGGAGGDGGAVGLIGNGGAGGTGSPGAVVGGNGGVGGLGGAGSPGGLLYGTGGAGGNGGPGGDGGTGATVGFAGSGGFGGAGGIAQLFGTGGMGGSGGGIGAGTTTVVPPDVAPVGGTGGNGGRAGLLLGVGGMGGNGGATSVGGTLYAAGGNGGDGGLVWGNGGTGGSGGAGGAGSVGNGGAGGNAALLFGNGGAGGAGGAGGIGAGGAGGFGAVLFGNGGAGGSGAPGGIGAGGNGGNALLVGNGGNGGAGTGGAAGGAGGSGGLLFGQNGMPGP
UniProt Q9QUK6, residues 26-835: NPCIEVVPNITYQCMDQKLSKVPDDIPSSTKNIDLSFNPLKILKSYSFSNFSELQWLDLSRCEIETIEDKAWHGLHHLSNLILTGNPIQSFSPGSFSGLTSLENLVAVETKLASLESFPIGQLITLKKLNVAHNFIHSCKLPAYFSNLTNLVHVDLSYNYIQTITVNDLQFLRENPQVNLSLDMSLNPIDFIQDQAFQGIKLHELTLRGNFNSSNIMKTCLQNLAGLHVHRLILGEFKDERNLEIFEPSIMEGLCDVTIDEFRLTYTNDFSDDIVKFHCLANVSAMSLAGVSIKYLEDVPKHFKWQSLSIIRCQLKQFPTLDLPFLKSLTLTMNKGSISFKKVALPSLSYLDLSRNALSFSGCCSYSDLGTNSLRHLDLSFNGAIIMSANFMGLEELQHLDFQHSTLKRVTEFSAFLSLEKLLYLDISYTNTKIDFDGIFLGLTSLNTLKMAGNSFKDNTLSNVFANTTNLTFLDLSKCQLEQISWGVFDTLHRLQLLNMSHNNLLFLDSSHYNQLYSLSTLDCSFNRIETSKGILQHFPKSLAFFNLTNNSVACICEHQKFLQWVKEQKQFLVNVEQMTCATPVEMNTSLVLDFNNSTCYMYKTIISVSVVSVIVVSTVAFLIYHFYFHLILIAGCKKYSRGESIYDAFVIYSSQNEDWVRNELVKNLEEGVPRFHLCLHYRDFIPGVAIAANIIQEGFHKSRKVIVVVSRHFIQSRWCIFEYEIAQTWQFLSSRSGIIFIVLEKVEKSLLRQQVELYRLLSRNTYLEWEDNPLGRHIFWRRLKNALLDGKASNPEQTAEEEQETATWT

Assay [1] deals with T1, S100A9 (mouse (endogenous in RAW264.7)) (UniProt P31725).
T1 sequence: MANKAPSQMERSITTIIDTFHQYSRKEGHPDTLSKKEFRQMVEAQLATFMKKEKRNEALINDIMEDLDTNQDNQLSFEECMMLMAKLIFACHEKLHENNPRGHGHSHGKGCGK
The experiment in a line: co-IP.

Assay [2] concerns the target Rv1768 (PE_PGRS31), full-length, 6xHis-tagged (M. tuberculosis H37Rv) (UniProt Q79FK9). As to the kind of experiment: pull-down; only the target purified.
For assay [3] the target is unchanged. The experiment in a line: pull-down; only the target purified. This is another data set of the same source.

Like-named read-outs stand apart in the source and are kept apart here. These are yes or no findings as the source states them, for the method shown. In cells and extracts the contact can be indirect. Some results given as binding are weak or reduced against the parent protein; the word gives no strength.

Regarding “Rv1768 expressed from pcDNA3.1-Rv1768 in RAW264.7 cells (from UniProt Q79FK9 1-618)”, in assay [1], the binding result is recorded as “binds”.
In the case of “Toll-like receptor 4 (TLR4) (from UniProt Q9QUK6 26-835)”, the binding entry in assay [2] was “no binding”.

B1: S100A9 (protein, UniProt P31725 1-113)
chain: MANKAPSQMERSITTIIDTFHQYSRKEGHPDTLSKKEFRQMVEAQLATFMKKEKRNEALINDIMEDLDTNQDNQLSFEECMMLMAKLIFACHEKLHENNPRGHGHSHGKGCGK
Take B1: the binding entry in assay [3] was “binds”.
